Test results from the supplement of paper PMC12889115.
The other results are listed elsewhere or left out. Values are raw readings; no control value is given beside them.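 In the initial screen, polymyxin B was used at a concentration that permeabilizes Salmonella's outer membrane but not its inner membrane. Maximum growth was set by DMSO wells with or without polymyxin B. Since plates varied, data were ranked per plate, and compounds giving the lowest OD600 advanced as hits.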

System: Salmonella enterica serovar Typhimurium SL1344
Test: bacterial growth OD600 after 18 h with compound and polymyxin B; higher = more bacterial growth (less inhibition)
Conditions: 50 µM, Mueller-Hinton broth

COc1cccc(CC2(CCC(=O)N3CCCC(COc4cccc(C)c4)C3)CCC(=O)N2)c1 (centres undefined)
bacterial growth OD600 (polymyxin B 0.75 µg/mL): 0.02

COCCn1c(CN2CCC(OC)CC2)cnc1S(=O)(=O)C1CCCCCC1
bacterial growth OD600 (polymyxin B 0.75 µg/mL): 0.743

CC(=O)Nc1cc(C(=O)NCC2(N3CCOCC3)CCCC2)c2c(c1)nc(C)n2Cc1ccccc1
bacterial growth OD600 (polymyxin B 0.75 µg/mL): 0.754

COc1ccc(CC2(CCC(=O)N3CCN(c4ccccc4)CC3C)CCC(=O)N2)c(F)c1 (centres undefined)
bacterial growth OD600 (polymyxin B 0.75 µg/mL): 0.776

COCCCC1CCN(Cc2nc(-c3ccccc3)no2)CC1
bacterial growth OD600 (polymyxin B 1 µg/mL): 0.922

O=C(c1n[nH]c2ccccc12)N1CCC2(CCCN(CC3CC3)C2)C1 (centres undefined)
bacterial growth OD600 (polymyxin B 0.75 µg/mL): 0.807

COc1ccc(CCN2CC(NC(=O)C(C)C)CC2=O)cc1 (centres undefined)
bacterial growth OD600 (polymyxin B 1 µg/mL): 0.697

COc1cccc(C(=O)NCC2CCCN(C(=O)Cc3cccc(C)c3)C2)c1OC (centres undefined)
bacterial growth OD600 (polymyxin B 1 µg/mL): 0.902

CCn1ccnc1CN1CCN(Cc2ccc(OC)c(C)c2)C(CCO)C1 (centres undefined)
bacterial growth OD600 (polymyxin B 1 µg/mL): 0.913

O=C(NCCc1ccccn1)C1CC12CCN(C(=O)/C=C/c1ccc(Cl)cc1)CC2 (centres undefined)
bacterial growth OD600 (polymyxin B 0.75 µg/mL): 0.939

CCOC(=O)C1(CCCc2ccccc2)CCCN(C(=O)c2ccc3c(c2)OCO3)C1 (centres undefined)
bacterial growth OD600 (polymyxin B 1 µg/mL): 0.076

COc1ccc(-n2cc(CNCCN3CCC(O)CC3)c(-c3cccc(F)c3)n2)cc1
bacterial growth OD600 (polymyxin B 1 µg/mL): 0.237

Cc1nc(N(C)C2CCCCC2)ncc1C(C)NC1CCSCC1 (centres undefined)
bacterial growth OD600 (polymyxin B 1 µg/mL): 1.26

CC#CCN1C(=O)NC(CCCc2ccccc2)(C2CCN(C(=O)c3ccoc3C)CC2)C1=O (centres undefined)
bacterial growth OD600 (polymyxin B 0.75 µg/mL): 0.013

CN(C)C(=O)CN1CCN(C(=O)CCC2(Cc3ccc(Cl)cc3)CCC(=O)N2)CC1 (centres undefined)
bacterial growth OD600 (polymyxin B 0.75 µg/mL): 0.884

OC(c1ccc2c(c1)CN(Cc1ccccn1)CCO2)C(c1ccccc1)c1ccccc1 (centres undefined)
bacterial growth OD600 (polymyxin B 0.75 µg/mL): 0.705

O=C(NCC1Cc2cccc(-c3ncccn3)c2O1)c1ccc(-n2cccn2)cc1 (centres undefined)
bacterial growth OD600 (polymyxin B 0.75 µg/mL): 1.01

Cc1ccsc1CN(C)C(=O)c1ccc(OC2CCN(C(=O)C3CC3)CC2)cc1
bacterial growth OD600 (polymyxin B 1 µg/mL): 1.04

COc1cccc(N2C[C@@H]3C[C@@H](C4=Cc5cc(OC)ccc5OC4)N4CCC[C@@]34C2=O)c1
bacterial growth OD600 (polymyxin B 1 µg/mL): 1.03

CN(Cc1ccc2nsnc2c1)C(=O)Cn1nnnc1CN1CCCC1
bacterial growth OD600 (polymyxin B 0.75 µg/mL): 0.72

Cc1ccc(C2(c3noc(CN4CCCCC4CO)n3)CCCC2)cc1 (centres undefined)
bacterial growth OD600 (polymyxin B 1 µg/mL): 0.043

Cc1ccc(F)cc1CNC(=O)C1CCCN(C2CCN(C(C)C)CC2)C1 (centres undefined)
bacterial growth OD600 (polymyxin B 0.75 µg/mL): 0.809

COc1ccccc1CNC(=O)CCC1(Cc2ccco2)CCC(=O)N1 (centres undefined)
bacterial growth OD600 (polymyxin B 0.75 µg/mL): 0.901

Cc1oc(-c2ccccc2NC(=O)CC2CCCC2)nc1CNC(=O)c1c(-c2ccccc2)noc1C
bacterial growth OD600 (polymyxin B 0.75 µg/mL): 0.87

Cc1cnc(SCCN2CCOCC2)nc1C1CCCN(C(=O)c2ccc3c(c2)OCO3)C1 (centres undefined)
bacterial growth OD600 (polymyxin B 0.75 µg/mL): 0.979

CCCOC1CCCN(c2nncc(-c3c(OC)cccc3OC)n2)C1 (centres undefined)
bacterial growth OD600 (polymyxin B 1 µg/mL): 0.711

CCCCn1c(CN2CCC[C@H]2CO)cnc1S(=O)(=O)CCCC(C)C
bacterial growth OD600 (polymyxin B 0.75 µg/mL): 0.446

COCC(C)NC(=O)CCC1(Cc2ccc(OC)c3ccccc23)CCC(=O)N1 (centres undefined)
bacterial growth OD600 (polymyxin B 0.75 µg/mL): 0.848

O=C(Cn1cc(NC(=O)CCC(=O)c2ccccc2)cn1)NCC(c1ccccc1)c1ccccc1
bacterial growth OD600 (polymyxin B 0.75 µg/mL): 0.656
